Experimental data from US20230277125A1, “BREATH-BASED THERAPEUTIC DRUG MONITORING METHOD” (UNIVERSITÄTS-KINDERSPITAL BEIDER BASEL, priority 2020, published 2023).

Experiment: SESI-HRMS exhaled breath metabolite levels, side effects vs no side effects in patients on antiepileptic drugs
Format: in vivo, human
Conditions: side effect dataset (yes vs no), training-set, average over listed m/z adducts
In the case of CNCC(O)c1ccccc1 (centres unmarked) [N-Methylphenylethanolamine], the “Average log2 FC” value is reported as 0.572.
With C[N+](C)(C)CCCC(=O)[O-] [3-Dehydroxycarnitine] the “Average log2 FC” value was 0.674.
For N[C@@H](CCCC=O)C(=O)O [2-Aminoadipate 6-semialdehyde], the “Average log2 FC” value was 0.662.
For O=C(O)CCCO [4-Hydroxybutanoate], the “Average log2 FC” value was 1.113.
With C[N+](C)(C)CCCC[C@H](N)C(=O)O [N6,N6,N6-Trimethyl-L-lysine] the “Average log2 FC” value was 0.722.
With CC(=O)NCCC=O [acetamidopropanal] the “Average log2 FC” value was 0.915.
With CC(=O)N[C@@H]1O[C@H](CO)[C@@H](O)[C@H](O)[C@H]1N [N-Acetyl-beta-D-glucosaminylamine] the “Average log2 FC” value was 1.155.
For N=C(N)NCCCC(=O)O [4-Guanidinobutanoate], the “Average log2 FC” value was 0.984.
In the case of O=C(O)[C@@H]1CCCCN1 [L-Pipecolate], the “Average log2 FC” value is reported as 0.708.
In the case of O=C(O)[C@@H]1CCCN1 [L-Proline], the “Average log2 FC” value is reported as 0.915.
With O=CC(=O)O [Glyoxylate] the “Average log2 FC” value was 0.236.
For Procollagen 5-hydroxy-L-lysine, the “Average log2 FC” value was 1.133.
In the case of NC(=O)NCCC[C@H](N)C(=O)O [Citrulline], the “Average log2 FC” value is reported as 0.909.
For C[N+](C)(C)C[C@H](O)CC(=O)[O-] [L-Carnitine], the “Average log2 FC” value was 0.574.
With O=C(O)[C@H]1CCCN1 [D-Proline] the “Average log2 FC” value was 0.915.
In the case of CC(=O)NC(CCC=O)C(=O)O (centres unmarked) [2-Acetamido-5-oxopentanoate], the “Average log2 FC” value is reported as 0.788.
With N[C@@H](CCCC(=O)O)C(=O)O [L-2-Aminoadipate] the “Average log2 FC” value was 0.562.
With CC(=O)NCCCNCCCCN [N1-Acetylspermidine] the “Average log2 FC” value was 0.528.
With CC(=O)N[C@@H](CCCN)C(=O)O [N-Acetylornithine] the “Average log2 FC” value was 1.348.
With O=C(O)C1CCC=N1 (centres unmarked) [1-Pyrroline-5-carboxylate] the “Average log2 FC” value was 0.708.
In the case of N[C@H](CC(=O)O)C(=O)O [D-Aspartate], the “Average log2 FC” value is reported as 0.849.
With NC(=O)C[C@H](N)C(=O)O [L-Asparagine] the “Average log2 FC” value was 0.803.
With O=C(O)[C@@H]1CCCC=N1 [delta1-Piperideine-6-L-carboxylate] the “Average log2 FC” value was 0.579.
For CC(=O)NCCCCNCCCN [N8-Acetylspermidine], the “Average log2 FC” value was 0.528.
In the case of N[C@@H](CC(=O)O)C(=O)O [L-Aspartic acid], the “Average log2 FC” value is reported as 0.849.
For N[C@@H](CCC(=O)O)C(=O)O [L-Glutamic acid], the “Average log2 FC” value was 0.503.
In the case of spermidine monoaldehyde 1, the “Average log2 FC” value is reported as 0.953.
In the case of O=C(O)C1=NCCC1 [1-Pyrroline-2-carboxylate], the “Average log2 FC” value is reported as 0.708.
In the case of CC[C@H](N)C(=O)O [(S)-2-Aminobutanoate], the “Average log2 FC” value is reported as 0.955.
For NCCC[C@H](NC(=O)CCC(=O)O)C(=O)O [N2-Succinyl-L-ornithine], the “Average log2 FC” value was 0.532.
With N[C@@H](CC(O)C=O)C(=O)O (stereo partly drawn) [L-4-Hydroxyglutamate semialdehyde] the “Average log2 FC” value was 0.503.
For CNCC(=O)O [Sarcosine], the “Average log2 FC” value was 0.472.
In the case of CC(=O)NCCCC=O [N4-Acetylaminobutanal], the “Average log2 FC” value is reported as 0.708.
For CC(=O)N[C@@H](CCC(=O)O)C(=O)O [N-Acetyl-L-glutamate], the “Average log2 FC” value was 0.716.
In the case of CN(CC(=O)O)C(=N)N [Creatine], the “Average log2 FC” value is reported as 0.438.
In the case of NCC(=O)O [Glycine], the “Average log2 FC” value is reported as −0.061.
For CC(=O)NCCCCN [N-Acetylputrescine], the “Average log2 FC” value was 0.704.
With O=C(O)C1=NCCCC1 [delta1-Piperideine-2-carboxylate] the “Average log2 FC” value was 0.579.
With NC(=O)CC[C@H](N)C(=O)O [L-Glutamine] the “Average log2 FC” value was 0.935.
In the case of Protein N6,N6-dimethyl-L-lysine, the “Average log2 FC” value is reported as 0.948.
With spermidine monoaldehyde 2 the “Average log2 FC” value was 0.953.
In the case of 6-Amino-2-oxohexanoate, the “Average log2 FC” value is reported as 0.662.
With N[C@@H](C[C@@H](O)C(=O)O)C(=O)O [L-erythro-4-Hydroxyglutamate] the “Average log2 FC” value was 1.004.
With NCCCC[C@H](N)C(=O)O [L-Lysine] the “Average log2 FC” value was 0.845.
For O=CCCNCCCCNCCC=O [spermine dialdehyde], the “Average log2 FC” value was 1.321.
For CC(=O)O [Acetate], the “Average log2 FC” value was −1.130.
With CC(=O)NCCCC(=O)O [4-Acetamidobutanoate] the “Average log2 FC” value was 0.662.
